Values joined by “and” are separate entries in the source; they are usually repeats but may differ in a detail not shown here. Equal entries are not always repeated. The source gives many values for each of these; only a part stands here.
Molecular target: T1, SBC2 (Homo sapiens, UniProt O14508)
T1 construct: SOCS2 (amino acids 32–198); His6 (N, cleaved yes); made in house; host or cells: E. coli BL21(DE3)
Assay: Covalent fluorescence polarization (FP) probe displacement assay
Format: binding
Source text: With the specific covalent modification of Cys111 established, we decided to fully characterize MN551 as a covalent SOCS2 inhibitor. […] (Fig. 2g, h, Supplementary Fig. 9). Due to the covalent nature of the competing inhibitor, a time-dependent reduction in the fraction of protein-bound probe is observed. […] This value illustrates reasonable specificity for a covalent inhibitor, with nonetheless scope for future optimization. In addition to characterizing the kinetic covalency parameters, we have also assessed the stability of the MN551 by monitoring its reactivity (half-life >70 min) with reduced glutathione (GSH) (Supplementary Fig. 10)[35].
To monitor the SBC2-ligand binding kinetics we designed a fluorescein-labeled small-molecule probe - compound 26. The fluorescence polarization (anisotropy) of a threefold serial dilution of 50 µM SBC2 in 10 nM of the probe in 100 mM HEPES pH 7.5, 50 mM NaCl, 0.5 mM TCEP, 2% DMSO was measured to determine the KL (Supplementary Fig. 9A) (BMG Labtech PHERAstar – firmware v1.33). Protein titration and the curves were fitted using GraphPad Prism 9, using one-site fitting models to determine the probe binding constant, KL. Samples were run in triplicate in 384 well plates, using a total volume per well of 16 μL. The bound fraction of the probe is measure using the equation:1 Fb=Af−A/Af−Ab Where,
A time-dependent reduction in probe anisotropy were measured for a 2-fold serial dilution of […] compound MN551 in 10 nM probe +300 μM SBC2. To determine the initial reversible binding affinity, the initial bound fraction of the probe at time = 0, Fbo (the y-intercept in Fb v/s Time plot, Supplementary Fig. 9B) was plotted against MN551 concentration, and the obtained IC50 is then converted to Ki (Supplementary Fig. 9C)[17]. The slope from Fb versus time graph when divided by Fbo gives rate of covalency, kobs. A plot of kobs v/s MN551 concentration using Michaelis–Menten model of GraphPad Prism 9, provides the parameters kinact (maximum potential rate of inactivation) and KI (concentration of MN551 at which kobs = kinact/2) (Supplementary Fig. 9D, E).
The observed first-order rate constant, kobs is related to KI and kinact by the equation:2 kobs=kinactI/KI+I
At [I]«[KI] the above equation is converted to3 […]
The slope from the plot of kobs against concentration of MN551 gives us the covalent efficiency parameter kinact/KI (Supp Fig. 9F)[30],[33].

Amino acid sequences for entries named in this document (tags omitted). Residues count along the entry.
UniProt O14508, 32-198: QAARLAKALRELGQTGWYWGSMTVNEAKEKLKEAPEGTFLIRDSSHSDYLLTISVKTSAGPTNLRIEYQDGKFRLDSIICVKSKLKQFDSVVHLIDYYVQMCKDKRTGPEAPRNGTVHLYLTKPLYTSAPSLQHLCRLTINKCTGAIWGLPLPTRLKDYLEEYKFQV

[1] = MN551 48.4003 nM; Cycle 9 (40 min)
[2] = MN551 48.4003 nM; Cycle 10 (45 min)
[3] = MN551 48.4003 nM; Cycle 11 (50 min)
[4] = MN551 48.4003 nM; Cycle 12 (55 min); n=1
[5] = MN551 48.4003 nM; Cycle 13 (60 min); n=1
[6] = MN551 48.4003 nM; Cycle 14 (65 min); n=1
[7] = MN551 48.4003 nM; Cycle 15 (70 min); n=1
[8] = MN551 48.4003 nM; Cycle 16 (75 min); n=1
[9] = MN551 48.8281 nM, Cycle 8 (35 min)
[10] = MN551 48.8281 nM, Cycle 9 (40 min)
[11] = MN551 48.8281 nM, Cycle 10 (45 min)
[12] = MN551 48.8281 nM; Cycle 6 (25 min)
[13] = MN551 48.8281 nM; Cycle 7 (30 min)
[14] = MN551 48.8281 nM; Cycle 8 (35 min)
[15] = MN551 48.8281 nM; Cycle 9 (40 min)
[16] = MN551 48.8281 nM; Cycle 10 (45 min)
[17] = MN551 48.8281 nM; Cycle 12 (55 min); n=1
[18] = MN551 48.8281 nM; Cycle 13 (60 min); n=1
[19] = MN551 48.8281 nM; Cycle 14 (65 min); n=1
[20] = MN551 48.8281 nM; Cycle 15 (70 min); n=1
[21] = MN551 48.8281 nM; Cycle 16 (75 min); n=1
[22] = MN551 67.7604 nM, Cycle 8 (35 min)
[23] = MN551 67.7604 nM, Cycle 9 (40 min)
[24] = MN551 67.7604 nM, Cycle 10 (45 min)
[25] = MN551 67.7604 nM, Cycle 11 (50 min)
[26] = MN551 67.7604 nM, Cycle 15 (70 min), n=1

With `O=C(CCl)Nc1cccc(CNC(=O)[C@H](Cc2ccc(OP(=O)(O)O)cc2)NC(=O)Cc2ccc(F)cc2)c1` [MN551] the Fb (MN551 48.4003 nM; Cycle 8 (35 min)) was 0.9933 and 1.043 and 1.113 and 1.04 and 1 and 1.032, the Anisotropy [1] was 280 and 278 and 278.6 and the “Anisotropy data 485,520,520” value [1] was 268.1 and 267.5 and 268.9. The Fb [1] was 0.999 and 1.03 and 1.1 and 1.0407 and 0.983 and 1.0242, the Anisotropy [2] was 280.7 and 278.3 and 278.1 and the “Anisotropy data 485,520,520” value [2] was 267.1 and 263.9 and 265.8. For the same compound, the Fb [2] was 0.9971 and 1.03 and 1.138 and 1.04 and 0.9963 and 1.019, the Anisotropy [3] was 280.5 and 276 and 276.2 and the Fb [3] was 1.047 and 0.9915 and 1.0219. For the same compound, the Anisotropy (MN551 48.4003 nM; Cycle 11 (50 min); n=1) was 265.8 and 265.5 and 266.5, the Anisotropy [4] was 266.6 and 265.4 and 263.4 and the “Anisotropy based on Raw Data (485)” value [4] was 277.3 and 275.9 and 275. For the same compound, the Anisotropy [5] was 264.6 and 263.3 and 264.3, the “Anisotropy based on Raw Data (485)” value [5] was 275 and 274.2 and 275.8 and the Anisotropy [6] was 266 and 262.3 and 263.7. The “Anisotropy based on Raw Data (485)” value [6] was 274.3 and 274.4 and 272.5, the Anisotropy [7] was 263.4 and 262.8 and 262.4 and the “Anisotropy based on Raw Data (485)” value [7] was 274.4 and 274.9 and 273.3. The Anisotropy [8] was 265 and 262.8 and 263.9, the “Anisotropy based on Raw Data (485)” value [8] was 273.7 and 273.3 and 272.4 and the “Anisotropy data 485,520,520” value (MN551 48.4003 nM; Cycle 19 (90 min); n=1) was 274.9 and 271.3 and 271.4. The “Anisotropy data 485,520,520” value (MN551 48.4003 nM; Cycle 20 (95 min); n=1) was 273.9 and 272.2 and 268, the Fb (MN551 48.8281 nM, Cycle 7 (30 min)) was 0.8745 and 0.962 and 0.9712 and the “Anisotropy based on Raw Data (485)” value [9] was 280.9 and 279.7 and 278.8. The Fb [9] was 0.8789 and 0.9618 and 0.963, the “Anisotropy based on Raw Data (485)” value [10] was 279.7 and 277.8 and 275.3 and the Fb [10] was 0.8613 and 0.962 and 0.9437. The “Anisotropy based on Raw Data (485)” value [11] was 277 and 277.8 and 275.6, the Fb [11] was 0.8383 and 0.95 and 0.9637 and the “Anisotropy based on Raw Data (485)” value (MN551 48.8281 nM, Cycle 11 (50 min)) was 279.2 and 275.8. The Anisotropy (MN551 48.8281 nM, Cycle 13 (60 min), n=1) was 278.3 and 279 and 278.7, the Anisotropy (MN551 48.8281 nM, Cycle 14 (65 min), n=1) was 279.2 and 277.8 and 278.5 and the Anisotropy (MN551 48.8281 nM, Cycle 15 (70 min), n=1) was 277.8 and 277 and 276.3. The Anisotropy (MN551 48.8281 nM, Cycle 16 (75 min), n=1) was 275.3 and 276.5, the Anisotropy (MN551 48.8281 nM, Cycle 17 (80 min), n=1) was 275.1 and 275.5 and 275.4 and the “Fb, fraction bound” value (MN551 48.8281 nM; Cycle 3 (10 min)) was 1.017 and 1.016 and 1.036. For the same compound, the “Fb, fraction bound” value (MN551 48.8281 nM; Cycle 4 (15 min)) was 1.013 and 1.016 and 1.001, the “Fb, fraction bound” value (MN551 48.8281 nM; Cycle 5 (20 min)) was 0.975 and 1.054 and 1.0156 and the “Anisotropy data 485,520,520” value [12] was 273.6 and 274.3 and 276.1. The Fb [12] was 0.9397 and 0.9269 and 0.9409, the “Fb, fraction bound” value [12] was 1.009 and 1.035 and 0.9936 and the “Anisotropy data 485,520,520” value [13] was 273.7 and 271.5 and 275.6. For the same compound, the Fb [13] was 0.9851 and 0.9229 and 0.9837, the “Fb, fraction bound” value [13] was 1.035 and 1.0159 and 1.041 and the Anisotropy [14] was 281.9 and 283.1 and 281.7. For the same compound, the “Anisotropy data 485,520,520” value [14] was 274.7 and 271.5 and 274.9, the Fb [14] was 0.9767 and 0.9141 and 0.9698 and 1.023 (2×) and 1.02 and the Anisotropy [15] was 279.8 and 281.1 and 281.7. The “Anisotropy data 485,520,520” value [15] was 274.1 and 268.9 and 274, the Fb [15] was 0.995 and 0.9033 and 0.9671 and 0.9896 and 1.021 and 1.031 and the Anisotropy [16] was 281.1 and 279.9 and 282. For the same compound, the “Anisotropy data 485,520,520” value [16] was 273.6 and 269 and 274.5, the Fb [16] was 1.007 and 0.9151 and 0.9836 and 1.012 and 1.024 and 1.036 and the Anisotropy (MN551 48.8281 nM; Cycle 11 (50 min); n=1) was 271.3 and 267.7 and 270.2. For the same compound, the Anisotropy [17] was 273 and 268.8 and 270.6, the “Anisotropy based on Raw Data (485)” value [17] was 276.8 and 278.8 and 274.9 and the Anisotropy [18] was 269 and 267 and 271.1. For the same compound, the “Anisotropy based on Raw Data (485)” value [18] was 276.2 and 276.8 and 274.6, the Anisotropy [19] was 270.5 and 265.8 and 271.3 and the “Anisotropy based on Raw Data (485)” value [19] was 275 and 276.5 and 273.8. The Anisotropy [20] was 270.6 and 267.2 and 269.2, the “Anisotropy based on Raw Data (485)” value [20] was 275.4 and 274.5 and 271.1 and the Anisotropy [21] was 271.6 and 264.4 and 268.2. The “Anisotropy based on Raw Data (485)” value [21] was 276.9 and 275.1 and 272.9, the “Anisotropy data 485,520,520” value (MN551 48.8281 nM; Cycle 19 (90 min); n=1) was 275 and 275.6 and 273.5 and the “Anisotropy data 485,520,520” value (MN551 48.8281 nM; Cycle 20 (95 min); n=1) was 273.5 and 274.5 and 275.2. The Fb (MN551 67.7604 nM, Cycle 7 (30 min)) was 0.7335 and 0.9246 and 0.8926, the “Anisotropy based on Raw Data (485)” value [22] was 275.9 and 276.5 and 278.9 and the Fb [22] was 0.7357 and 0.8981 and 0.8941. The “Anisotropy based on Raw Data (485)” value [23] was 276 and 275.7 and 277.3, the Fb [23] was 0.7087 and 0.904 and 0.8635 and the “Anisotropy based on Raw Data (485)” value [24] was 275.2 and 276.3 and 277. For the same compound, the Fb [24] was 0.7338 and 0.9072 and 0.8843, the “Anisotropy based on Raw Data (485)” value [25] was 273.6 and 275.2 and 273.4 and the Fb [25] was 0.7213 and 0.8718 and 0.8974. For the same compound, the Anisotropy (MN551 67.7604 nM, Cycle 13 (60 min), n=1) was 278.7 and 273.6 and 274.5, the Anisotropy (MN551 67.7604 nM, Cycle 14 (65 min), n=1) was 277.8 and 274.6 and 274.7 and the Anisotropy [26] was 275.3 and 274.9 and 272.6. For the same compound, the “Normalised anisotropy (0 nM MN551 = 1, free probe = 0)” value [26] was 1.025 and 1.003 and 0.9923 and the Anisotropy (MN551 67.7604 nM, Cycle 16 (75 min), n=1) was 276.7 and 272.6 and 270.9.

From paper PMC10564737, “Structure-based design of a phosphotyrosine-masked covalent ligand targeting the E3 ligase SOCS2” (Nature Communications, 2023)
